# Measured values reported in PubChem BioAssay AID1347076 (National Center for Advancing Translational Sciences (NCATS), 2019).
# Among all 400,000 compounds or so, about 13,000 (3.2%) were called active. Inconclusive results, whose numbers are uncertain, are shown with a selection of clear calls. Calls follow the shape of the dose curve; as a rule, active = well fitted cell-killing curve with a large enough effect; inconclusive = small, poorly fitted or top-dose-only effect, or effect the other way; inactive = flat fitted curve, though single readings scatter. A potency beside an inconclusive call is a rough fit, not a confirmed value.
# Assay: qHTS assay for MDR1-selective chemotherapeutics: Primary screen using the drug-selected MDR subline cells KB-V1; also: nearly all actives have a fitted effect of over 60% in size
# Details: KB-V1 MDR cells viability, CellTiter-Glo, 72 h; activity change, negative = cytotoxicity: at 46.1 µM (top of the series)
# Summary of the method: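 Readout: CellTiter-Glo luminescence, 10 min after addition. Cells: KB-V1 MDR subline, 72 h at 37 degrees C with compound. Analysis: corrected, normalized data fitted to concentration-effect curves.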
# % is scaled to controls: 0 for no effect and ±100 for the full control effect; potency is read from the fitted curve at half-maximal effect.
Structure (SMILES),Potency,"activity change, negative = cytotoxicity"
COc1ccc(CNC(=O)CN(C(=O)CCC(=O)Nc2ccccn2)c2ccccc2OC)cc1,"inconclusive: 18.4 µM [cytotoxic, partial curve]",–
CCc1nc(NCc2ccc3c(c2)OCO3)c2oc3ccccc3c2n1,active: 16.4 µM,–
O=C1c2ccccc2C(Nc2cccc(C(F)(F)F)c2)N1Cc1ccco1 (stereo unspecified),"inconclusive: 16.4 µM [cytotoxic, single point]",–
Cc1nc2ncnn2c(C)c1CCC(=O)NCc1ccccc1Cl,"inconclusive: 29.1 µM [rising, single point]",–
COc1cccc(NC(=O)Cn2c(=O)n(-c3ccc(C)cc3)c(=O)c3ccc(C(=O)NCc4ccco4)cc32)c1,–,inactive: -12.2%
CC(=O)N1/C(=C/c2ccc(N(C)C)cc2)C(=O)c2ccccc21,–,inactive: -44.8%
COc1ccc(CC(N)c2csc(NC(=O)c3cccc(OC(F)(F)F)c3)n2)cc1 (stereo unspecified),"inconclusive: 16.4 µM [cytotoxic, single point]",–
NC(c1ccccc1)c1csc(NC(=O)Nc2cccc(Cl)c2)n1 (stereo unspecified),–,inactive: 0.43%
CN1C(=O)NC(c2cccc(F)c2)C2=C1CC(C)(C)CC2=O (stereo unspecified),–,inactive: -11.4%
CC(C)C[C@H](NC(=O)OC(C)(C)C)C(=O)N[C@@H](CO)[C@H](O)[C@@H]1C[C@@H]1C(=O)NC1CCCCC1,active: 10.3 µM,–
COc1cc(C)c(C)cc1S(=O)(=O)Nc1cccc(-c2ccc(N3CCOCC3)nn2)c1,"inconclusive: 6.51 µM [cytotoxic, full curve, poor fit]",–
N#Cc1c(C(F)(F)F)cc(-c2ccccc2Cl)[nH]c1=O,"inconclusive: 29.1 µM [cytotoxic, single point]",–
COc1ccccc1CC(=O)Nc1ccc(S(=O)(=O)N2CCCC2)cc1,"inconclusive: 18.4 µM [cytotoxic, partial curve]",–
CCOC(=O)CCSc1nc(-c2ccc3c(c2)OCO3)cc(C(F)(F)F)c1C#N,–,inactive: 0.226%
COCCn1c(=N)c(C(=O)NC(C)c2ccccc2)cc2c(=O)n3cc(C)ccc3nc21 (stereo unspecified),"inconclusive: 25.9 µM [rising, single point]",–
Cc1cc(NC(=O)CN2CCN(c3cccc(Cl)c3)CC2)no1,"inconclusive: 29.1 µM [cytotoxic, single point]",–
Cc1ccc(N(C(=O)CC2NC(=O)NC2=O)C2(C(=O)NC3CCCC3)CCCCC2)cc1 (stereo unspecified),"inconclusive: 29.1 µM [cytotoxic, single point]",–
Cc1cc(NC(=O)COC(=O)c2cc([N+](=O)[O-])ccc2N2CCOCC2)ccc1Br,"inconclusive: 16.4 µM [cytotoxic, partial curve, poor fit]",–
O=[N+]([O-])c1ccc(CN2CCN(c3ccc4ccccc4n3)CC2)cc1,"inconclusive: 29.1 µM [cytotoxic, single point]",–
CN(C)CCNC(=O)c1coc(=O)c(Br)c1,–,inactive: 14.2%
Cc1c(C(=O)N2CCN(c3cccc(Cl)c3)CC2)cccc1[N+](=O)[O-],–,inactive: -0.337%
CC(=O)NS(=O)(=O)c1ccc(NC(=O)c2oc3c(Cl)cccc3c2C)cc1,"inconclusive: 20.6 µM [rising, single point]",–
Cc1cccc(N2C(=O)C(O)=C(C(=O)c3cccs3)C2c2ccc(C(C)C)cc2)n1 (stereo unspecified),"inconclusive: 20.6 µM [cytotoxic, partial curve, poor fit]",–

# Record cards, from the list above:
# `Cc1cccc(N2C(=O)C(O)=C(C(=O)c3cccs3)C2c2ccc(C(C)C)cc2)n1` (stereo unspecified) as listed: Potency: inconclusive: 20.6 µM [cytotoxic, partial curve, poor fit]
# `O=[N+]([O-])c1ccc(CN2CCN(c3ccc4ccccc4n3)CC2)cc1` as listed: Potency: inconclusive: 29.1 µM [cytotoxic, single point]

# Following part.

Structure (SMILES),Potency,"activity change, negative = cytotoxicity"
CCCCC(C(=O)NCCC(C)C)N(CCCN1CCOCC1)C(=O)c1snc(C(N)=O)c1N (stereo unspecified),active: 9.2 µM,–
CCCc1cc(C(=O)Nc2nccs2)cs1,"inconclusive: 20.6 µM [cytotoxic, single point]",–
Cc1cc(NS(=O)(=O)c2ccc(NC(=O)c3ccco3)cc2)no1,"inconclusive: 5.17 µM [rising, partial curve, poor fit]",–
Cc1cc(Nc2ccc(F)cc2)c2ccccc2n1,"inconclusive: 23.1 µM [cytotoxic, single point]",–
O=S(=O)(c1ccc(Br)cc1Cl)N1CCN(CCO)CC1,–,inactive: 16.2%
CCOC(=O)C1(CCc2ccccc2)CCN(Cc2ccccn2)CC1,"inconclusive: 16.4 µM [cytotoxic, single point]",–
CN(CC(=O)Nc1ccc(Cl)c(C(F)(F)F)c1)C(=O)CCCc1nc2ccccc2c(=O)[nH]1,"inconclusive: 18.4 µM [rising, partial curve]",–
CC(=O)N1CCc2cc(S(=O)(=O)CCC(=O)NCc3ccc(Cl)cc3)ccc21,–,inconclusive: -21.2%
COCCn1c(SCC(=O)Nc2cc(C)on2)nc2ccccc21,"inconclusive: 16.4 µM [cytotoxic, single point]",–
CC(=O)c1cnc2nc(C(F)(F)F)nn2c1C,–,inconclusive: 33.3%
CCCC(=O)OCC(=O)Nc1cc([N+](=O)[O-])ccc1OC,–,inactive: -11.8%
O=C(O)C(CCc1ccccc1)N1CCOCC1 (stereo unspecified),"inconclusive: 23.1 µM [rising, single point]",–
C/C(=N\Nc1nc2ccccc2nc1C)c1ccccc1O,–,inactive: 3.81%
COc1ccc(CNC(=O)c2cc3c(=O)oc4ccc(C)cc4c3s2)c(OC)c1,"inconclusive: 4.11 µM [rising, full curve, poor fit]",–
Cc1cccc(NC(=O)C(=O)NCC(c2ccc3c(c2)OCO3)N2CCN(C)CC2)c1C (stereo unspecified),–,inactive: 6.5%
Fc1ccc(C2CCNCC2COc2ccc3c(c2)OCO3)cc1 (stereo unspecified),"inconclusive: 29.1 µM [cytotoxic, single point]",–
CCOc1ccccc1N=C1SC(CC(=O)Nc2ccc(OC)cc2OC)C(=O)N1CCC1=CCCCC1 (stereo unspecified),"inconclusive: 29.1 µM [cytotoxic, single point]",–
COc1cc(NC(=O)CSc2ncc(S(=O)(=O)c3ccc(Br)cc3)c(=O)[nH]2)cc(OC)c1,–,inactive: -7.49%
COc1ccc(C(=O)/C=C/c2ccc(OC)c(O)c2)c(F)c1,"inconclusive: 29.1 µM [cytotoxic, single point]",–
Cc1c2cnn(CC(=O)NCCc3ccccc3)c(=O)c2c(C)n1Cc1ccccc1,–,inactive: -7.79%
CCN(CC)c1nc(N)c2c(N)n(-c3ccccc3C)c(=S)c(C#N)c2c1C#N,–,inactive: -4.37%
N#Cc1ccccc1OCC(=O)C1CC1,–,inactive: 1.89%
COc1ccc(N2CCN(C(=O)CCSCc3ccccc3F)CC2)cc1,"inconclusive: 18.4 µM [cytotoxic, single point]",–
